# The other results are listed elsewhere or left out. For some of these results: The source does not settle which construct or isoform was used.
# Chains of the proteins cited; added tags and fusions are not shown.
# UniProt P13051, whole entry: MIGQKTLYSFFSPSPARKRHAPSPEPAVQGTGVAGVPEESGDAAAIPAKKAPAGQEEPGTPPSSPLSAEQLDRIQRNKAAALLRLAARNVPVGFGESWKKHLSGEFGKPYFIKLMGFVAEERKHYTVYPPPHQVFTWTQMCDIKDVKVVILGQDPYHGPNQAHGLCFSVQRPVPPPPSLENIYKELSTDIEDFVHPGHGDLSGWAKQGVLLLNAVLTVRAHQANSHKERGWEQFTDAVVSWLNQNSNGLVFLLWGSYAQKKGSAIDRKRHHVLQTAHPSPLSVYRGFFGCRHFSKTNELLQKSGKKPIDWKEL
# Assays:
# Experiment in all cases: protein microarray (ProtoArray v5.0), streptavidin-Alexa Fluor 647
# Conditions in all cases: 3'-biotin; 20 mM Tris (pH 7.5), 5 mM MgCl2, 100 mM KCl, 0.1% Tween-20, A/T-rich and random oligonucleotide blockers; temperature not stated; high values mean tight binding
# UNG = UNG (UniProt P13051)
# [1] = tested on: UPF0417 protein FAM163A (human)
# [2] = tested on: UPF0545 protein C22orf39 (human)
# [3] = tested on: UPF0546 membrane protein C1orf91 (human)
# [4] = tested on: UPF0549 protein C20orf43 homolog (human)
# [5] = tested on: UPF0627 protein ENSP00000358171 (human)
# UROS (human) = tested on: UROS (human)
# USE1 (human) = tested on: USE1 (human)
# USP39 = molecular target: T1, USP39 (UniProt Q53GS9)
# T1 sequence: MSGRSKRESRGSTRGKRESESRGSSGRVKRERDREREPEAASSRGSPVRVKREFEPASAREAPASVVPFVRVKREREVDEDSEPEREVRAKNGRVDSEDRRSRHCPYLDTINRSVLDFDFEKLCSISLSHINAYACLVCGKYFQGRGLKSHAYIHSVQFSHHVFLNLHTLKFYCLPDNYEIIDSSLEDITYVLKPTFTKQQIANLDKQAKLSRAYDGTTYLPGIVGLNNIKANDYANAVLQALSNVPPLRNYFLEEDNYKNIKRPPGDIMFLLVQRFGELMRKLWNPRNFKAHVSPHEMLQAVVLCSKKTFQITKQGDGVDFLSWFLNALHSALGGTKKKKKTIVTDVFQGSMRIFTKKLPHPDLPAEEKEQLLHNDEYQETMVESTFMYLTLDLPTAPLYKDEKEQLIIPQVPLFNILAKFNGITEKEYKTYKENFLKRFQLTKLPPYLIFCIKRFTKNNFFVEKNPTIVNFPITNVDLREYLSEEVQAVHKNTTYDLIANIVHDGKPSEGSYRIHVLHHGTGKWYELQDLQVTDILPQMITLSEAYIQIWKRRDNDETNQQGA
# USP4 (human) = tested on: USP4 (human)
sequence,measurement,setting,value
GGTGACAGGGGTATGGGGAGGGG [G4-2 biotinylated (Ct1)],binding signal,UNG,3.41 z-score
same,binding signal,[1],-0.395 z-score
same,binding signal,[2],-0.366 z-score
same,binding signal,[3],-0.387 z-score
same,binding signal,[4],-0.384 z-score
same,binding signal,[5],-0.367 z-score
same,binding signal,UROS (human),-0.372 z-score
same,binding signal,USE1 (human),-0.369 z-score
same,binding signal,USP39,5.86 z-score
same,binding signal,USP4 (human),-0.375 z-score

# 2 entries from above, bar-delimited.
sequence | measurement | setting | value
GGTGACAGGGGTATGGGGAGGGG [G4-2 biotinylated (Ct1)] | binding signal | [2] | -0.366 z-score
same | binding signal | [3] | -0.387 z-score
